The text below walks through data of US20240043531A1, “ANTI-CD47 MONOCLONAL ANTIBODY AND USE THEREOF” (Akeso Biopharma, Inc., priority 2021, published 2024).

The chains behind the UniProt entries cited, without tags or fusion partners. Residues count along the entry.
UniProt Q08722, residues 19-323: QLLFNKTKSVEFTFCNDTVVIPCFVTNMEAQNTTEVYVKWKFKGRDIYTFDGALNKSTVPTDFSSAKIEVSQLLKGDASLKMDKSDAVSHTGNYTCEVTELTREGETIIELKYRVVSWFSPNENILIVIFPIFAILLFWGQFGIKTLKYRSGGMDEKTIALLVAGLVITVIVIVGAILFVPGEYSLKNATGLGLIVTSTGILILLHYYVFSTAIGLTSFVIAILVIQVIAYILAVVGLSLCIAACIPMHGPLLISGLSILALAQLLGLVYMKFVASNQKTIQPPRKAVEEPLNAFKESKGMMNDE

The test deals with human CD47 on 3T3-CD47 cells (NIH/3T3 cells stably expressing the human CD47 mature peptide) (human) (UniProt Q08722). Briefly: indirect ELISA screening with 3T3-CD47 cells as antigen.

These are yes or no findings as the source states them, for the method shown. Some results given as binding are weak or reduced against the parent protein; the word gives no strength.

B1: anti-CD47 monoclonal antibody 6F7 (secreted by hybridoma cell line LT012) (antibody, V domains shown)
VH: QVQLQQPGAELVRPGASVKLSCKASGYTFTSYWMNWVKQRPGQGLEWIGMIDPSDSETHNNQMFKDKATLTVDKSSNTAYMHLSSLTSEDSAVYHCARLYRWYFDVWGAGTTVTVSS
VL: NIVMTQSPKSMSMSLGERVTLSCKASEIVGTYVSWFQQKPHQSPKLLIYGASNRYTGVPDRFTGSGSATDFTLTISNVQAEDLADYHCGQSYNFPYTFGGGTKLEIK
notes: Murine hybridoma antibody; also called CD47-6F7; LT012 antibody
Turning to B1, the binding entry was “binds”.
